This is one part of the list. The main result of the screen is listed elsewhere. These columns were measured beside it and carry no call. Compounds called inactive in the main read-out are mostly missing here. Words in brackets tell the shape of the fitted curve; partial curves, single points and poor fits give uncertain potencies.

The experiment is described as follows: qHTS Assay for Lipid Storage Modulators in Drosophila S3 Cells.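 As to cell number change: cells counted by Cell Tracker Red CMTPX staining in the red channel.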 The conditions noted are these: BODIPY lipid droplet fluorescence, 18-24 h; for cell number change: measured here: cell count max response, cells fed with added oleic acid. The essentials: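 Laser-scanning cytometry quantifies lipid droplet accumulation (500–530 nm total intensity; droplet/cell object ratio) in oleic acid-fed (400 uM added) Drosophila S3 cells treated with a concentration series. 20 uM Triacsin C defined 100% inhibition.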

Setting [1] is: measured here: lipid fluorescence (Fed channel) AC50, cells fed with added oleic acid.
Setting [2] is: measured here: cell number channel AC50, cells fed with added oleic acid.

Regarding `CC1CCCCN1C(=O)CCS(=O)(=O)Cc1ccccc1` (stereo not drawn), the cell number change was determined as 22.1%.
In the case of `CC(C)c1nnc(NC(=O)c2cnccn2)s1`, the cell number change is -5.17%. Also, under setting [1], the AC50 was 580 nM [falling, single point].
Take `COc1ccc(-c2nnc(CSc3nnc(-c4ccncc4)n3C3CCCCC3)o2)cc1OC`: the cell number change worked out at 9.55%. In addition, under setting [1], the AC50 was 326 nM [rising, single point].
Turning to `CCOC(=O)CSc1nc2c(c(=O)[nH]1)C(C)(CC)Cc1ccccc1-2` (stereo not drawn), the cell number change is -30.8%. In addition, the AC50 under setting [2] was 29100 nM [falling, single point]. For the same molecule, the AC50 under setting [1] was 16400 nM [falling, single point].
`COc1ccc(CC(=O)Nc2ccc(OC)nc2)cc1`: the cell number change is 5.68%.
On to `CC(C)C[C@H](NC(=O)c1nc[nH]c1C(=O)NC1CCNCC1)C(=O)OCc1ccccc1`, for which the cell number change is -19.1%. Further, the AC50 under setting [2] is 5.17 nM [falling, full curve, poor fit]. Besides, under setting [1], the AC50 was 4.61 nM [falling, full curve, poor fit].
Turning to `COc1cc(/C(C)=N/NC(=O)C(O)(c2ccccc2)c2ccccc2)ccc1O`, the cell number change is -37.5%. In addition, the AC50 under setting [2] was 461 nM [falling, full curve]. Moreover, the AC50 under setting [1] is 580 nM [falling, full curve].
Regarding `CCC(=O)Nc1ccc(-c2nc3ccccc3c(=O)o2)cc1`, the cell number change was 5.35%. In addition, the AC50 under setting [2] is 1640 nM [falling, single point].
With `O=[N+]([O-])c1cccc(/C=N/Nc2nc(NCc3ccccc3)nc(N3CCOCC3)n2)c1`, the cell number change was determined as 23.5%. In addition, under setting [2], the AC50 is 1840 nM [rising, full curve, poor fit]. Also, the AC50 under setting [1] was 580 nM [rising, full curve].
For `Cc1nc2nc(SCC(=O)NCCCN3CCCCCC3)nn2c(C)c1Cc1ccccc1`, the cell number change was -3.81%.
`O=C1CC(Nc2ccccc2)C(=O)N1Cc1ccccc1` (stereo not drawn): the cell number change is 31.6%. In addition, the AC50 under setting [2] is 7310 nM [rising, partial curve]. The AC50 under setting [1] was 2060 nM [falling, partial curve].
As for `CC(=O)c1cc2c(cc1NC(=O)CN1Cc3ccccc3C1=O)OCO2`, the cell number change is 19.8%.
The same measure, in the same setting: the value for `CCS(=O)(=O)N1CCC(C(=O)NCCN2CCN(Cc3ccccc3)CC2)CC1` was -9.74%.
The same measure, in the same setting: the value for `O=C(CN1CCN(C(=O)N2CCOCC2)CC1)Nc1ccc(Br)cc1` was -3.76%.
Take `O=C(CN1CCN(Cc2ccc(F)cc2Cl)C1=O)NCCc1ccc(Cl)cc1`: under setting [1], the AC50 was 6510 nM [falling, single point].
With `CC(=O)Nc1cccc(C(=O)OCc2ccccc2)c1`, the cell number change is -58.8%. Also, the concentration at half-maximal activity (AC50) under setting [2] is 29100 nM [falling, single point].
Consider `O=C(COc1ccc(Cl)cc1Cl)Nc1ccccc1NS(=O)(=O)c1cccs1`, for which the cell number change was -39.9%. Further, the AC50 under setting [2] was 29100 nM [falling, single point]. Further, under setting [1], the AC50 is 29100 nM [falling, partial curve, poor fit].

The values above are taken from PubChem BioAssay AID2685 (National Center for Advancing Translational Sciences (NCATS), 2010).
